Results published in the supplement of paper PMC8728848.
Some of the results follow.

Tests used:
Experiment in all cases: glycan array binding signal (z-score within array); higher = stronger binding
Conditions in all cases: glycan notation: IUPAC condensed, linker removed
[1] = target: GlcNAc(b1-4)GlcNAc(b1-4)GlcNAc(b1-4)GlcNAc(b1-4)GlcNAc
Procedure, shortened: (§1)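 Columns mapping to the same glycan were averaged after glycan names were converted to IUPAC-condensed notation. The data come from 3228 arrays in the Consortium for Functional Glycomics database, limited to those with an available protein sequence. Binding is reported as a within-array Z-score averaged across arrays of one protein sequence and across linkers.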

[2] = target: GlcNAc(b1-4)GlcNAc(b1-4)GlcNAc(b1-4)GlcNAc(b1-4)GlcNAc(b1-4)GlcNAc
Procedure, shortened: as §1

[3] = target: GlcNAc(b1-4)[GlcNAc(b1-6)]GalNAc
Procedure, shortened: as §1

[4] = target: GlcNAc(b1-6)Gal(b1-4)GlcNAc
Procedure, shortened: as §1

GlcNAc(b1-6)GalNAc = target: GlcNAc(b1-6)GalNAc
Procedure, shortened: as §1

[5] = target: GlcNAc6S(b1-3)Gal(b1-4)GlcNAc
Procedure, shortened: as §1

Kdn(a2-3)Gal(b1-3)GalNAc = target: Kdn(a2-3)Gal(b1-3)GalNAc
Procedure, shortened: as §1

Kdn(a2-3)Gal(b1-3)GlcNAc = target: Kdn(a2-3)Gal(b1-3)GlcNAc
Procedure, shortened: as §1

Kdn(a2-3)Gal(b1-4)Glc = target: Kdn(a2-3)Gal(b1-4)Glc
Procedure, shortened: as §1

Kdn(a2-3)Gal(b1-4)GlcNAc = target: Kdn(a2-3)Gal(b1-4)GlcNAc
Procedure, shortened: as §1

[6] = target: Kdn(a2-3)Gal(b1-4)[Fuc(a1-3)]GlcNAc
Procedure, shortened: as §1

Kdn(a2-6)Gal(b1-4)GlcNAc = target: Kdn(a2-6)Gal(b1-4)GlcNAc
Procedure, shortened: as §1

[7] = target: Man(a1-2)Man(a1-2)Man(a1-3)Man
Procedure, shortened: as §1

[8] = target: Man(a1-2)Man(a1-2)Man(a1-6)[Man(a1-3)]Man
Procedure, shortened: as §1

Man(a1-2)Man(a1-3)Man = target: Man(a1-2)Man(a1-3)Man
Procedure, shortened: as §1

[9] = target: Man(a1-2)Man(a1-3)[Man(a1-2)Man(a1-6)]Man
Procedure, shortened: as §1

[10] = target: Man(a1-2)Man(a1-3)[Man(a1-2)Man(a1-6)]Man(a1-6)[Man(a1-2)Man(a1-2)Man(a1-3)]Man
Procedure, shortened: as §1

[11] = target: Man(a1-2)Man(a1-3)[Man(a1-2)Man(a1-6)]Man(a1-6)[Man(a1-2)Man(a1-2)Man(a1-3)]Man(b1-4)GlcNAc(b1-4)GlcNAc
Procedure, shortened: as §1

[12] = target: Man(a1-2)Man(a1-3)[Man(a1-6)]Man(a1-6)[Man(a1-2)Man(a1-3)]Man(b1-4)GlcNAc(b1-4)GlcNAc
Procedure, shortened: as §1

[13] = target: Man(a1-2)Man(a1-6)[Man(a1-3)]Man(a1-6)[Man(a1-2)Man(a1-2)Man(a1-3)]Man
Procedure, shortened: as §1

[14] = target: Man(a1-2)Man(a1-6)[Man(a1-3)]Man(a1-6)[Man(a1-2)Man(a1-2)Man(a1-3)]Man(b1-4)GlcNAc(b1-4)GlcNAc
Procedure, shortened: as §1

Man(a1-3)[Man(a1-6)]Man = target: Man(a1-3)[Man(a1-6)]Man
Procedure, shortened: as §1

[15] = target: Man(a1-3)[Man(a1-6)]Man(a1-6)[Man(a1-2)Man(a1-3)]Man(b1-4)GlcNAc(b1-4)GlcNAc
Procedure, shortened: as §1

[16] = target: Man(a1-3)[Man(a1-6)]Man(a1-6)[Man(a1-3)]Man
Procedure, shortened: as §1

[17] = target: Man(a1-3)[Man(a1-6)]Man(a1-6)[Man(a1-3)]Man(b1-4)GlcNAc(b1-4)GlcNAc
Procedure, shortened: as §1

[18] = target: Man(a1-3)[Man(a1-6)]Man(b1-4)GlcNAc(b1-4)GlcNAc
Procedure, shortened: as §1

[19] = target: Man(a1-3)[Man(a1-6)]Man(b1-4)GlcNAc(b1-4)[Fuc(a1-6)]GlcNAc
Procedure, shortened: as §1

Man(a1-6)Man = target: Man(a1-6)Man
Procedure, shortened: as §1

Man(b1-4)GlcNAc = target: Man(b1-4)GlcNAc
Procedure, shortened: as §1

MurNAc(b1-4)GlcNAc = target: MurNAc(b1-4)GlcNAc
Procedure, shortened: as §1

Neu5Ac(a2-3)Gal = target: Neu5Ac(a2-3)Gal
Procedure, shortened: as §1

[20] = target: Neu5Ac(a2-3)Gal(b1-3)GalNAc
Procedure, shortened: as §1

[21] = target: Neu5Ac(a2-3)Gal(b1-3)GalNAc(b1-3)Gal(a1-4)Gal(b1-4)Glc
Procedure, shortened: as §1

[22] = target: Neu5Ac(a2-3)Gal(b1-3)GalNAc(b1-4)Gal(b1-4)Glc
Procedure, shortened: as §1

[23] = target: Neu5Ac(a2-3)Gal(b1-3)GalNAc(b1-4)[Neu5Ac(a2-3)]Gal(b1-4)Glc
Procedure, shortened: as §1

[24] = target: Neu5Ac(a2-3)Gal(b1-3)GalNAc(b1-4)[Neu5Ac(a2-8)Neu5Ac(a2-3)]Gal(b1-4)Glc
Procedure, shortened: as §1

[25] = target: Neu5Ac(a2-3)Gal(b1-3)GalNAc6S
Procedure, shortened: as §1

[26] = target: Neu5Ac(a2-3)Gal(b1-3)GlcNAc
Procedure, shortened: as §1

[27] = target: Neu5Ac(a2-3)Gal(b1-3)GlcNAc(b1-2)Man
Procedure, shortened: as §1

[28] = target: Neu5Ac(a2-3)Gal(b1-3)GlcNAc(b1-2)Man(a1-3)[GlcNAc(b1-4)][Neu5Ac(a2-3)Gal(b1-3)GlcNAc(b1-2)Man(a1-6)]Man(b1-4)GlcNAc(b1-4)GlcNAc
Procedure, shortened: as §1

[29] = target: Neu5Ac(a2-3)Gal(b1-3)GlcNAc(b1-2)Man(a1-3)[Neu5Ac(a2-3)Gal(b1-3)GlcNAc(b1-2)Man(a1-6)]Man(b1-4)GlcNAc(b1-4)GlcNAc
Procedure, shortened: as §1

[30] = target: Neu5Ac(a2-3)Gal(b1-3)GlcNAc(b1-2)[Neu5Ac(a2-3)Gal(b1-3)GlcNAc(b1-4)]Man(a1-6)[Neu5Ac(a2-3)Gal(b1-3)GlcNAc(b1-2)Man(a1-3)]Man(b1-4)GlcNAc(b1-4)GlcNAc
Procedure, shortened: as §1

[31] = target: Neu5Ac(a2-3)Gal(b1-3)GlcNAc(b1-3)Gal(b1-3)GlcNAc
Procedure, shortened: as §1

[32] = target: Neu5Ac(a2-3)Gal(b1-3)GlcNAc(b1-3)Gal(b1-4)GlcNAc
Procedure, shortened: as §1

[33] = target: Neu5Ac(a2-3)Gal(b1-3)GlcNAc(b1-3)GalNAc
Procedure, shortened: as §1

B1: Erv41-EDTA (Saccharomyces cerevisiae), Q04651 (protein)
chain: MKFLVNVALVFMVVYISYIYAAAPEHHHHHHDYDIPTTENLYFQGAMGYIDQQYVVDSQVRDTVQINMDIYVNTKCDWLQINVRDQTMDRKLVLEELQLEEMPFFIPYDTKVNDINEIITPELDEILGEAIPAEFREKLDTRSFFDESDPNKAHLPEFNGCHVFGSIPVNRVSGELQITAKSLGYVASRKAPLEELKFNHVINEFSFGDFYPYIDNPLDNTAQFNQDEPLTTYVYYTSVVPTLFKKLGAEVDTNQYSVNDYRYLYKDVAAKGDKMPGIFFKYNFEPLSIVVSDVRL
glycan array binding signal (z-score) [1]: -0.85
glycan array binding signal (z-score) [2]: -0.727
glycan array binding signal (z-score) [3]: -1.1
glycan array binding signal (z-score) [4]: -0.106
glycan array binding signal (z-score) (GlcNAc(b1-6)GalNAc): -0.916
glycan array binding signal (z-score) [5]: 0.896
glycan array binding signal (z-score) (Kdn(a2-3)Gal(b1-3)GalNAc): 0.349
glycan array binding signal (z-score) (Kdn(a2-3)Gal(b1-3)GlcNAc): -0.267
glycan array binding signal (z-score) (Kdn(a2-3)Gal(b1-4)Glc): -0.865
glycan array binding signal (z-score) (Kdn(a2-3)Gal(b1-4)GlcNAc): -0.528
glycan array binding signal (z-score) [6]: 0.702
glycan array binding signal (z-score) (Kdn(a2-6)Gal(b1-4)GlcNAc): 0.261
glycan array binding signal (z-score) [7]: -0.638
glycan array binding signal (z-score) [8]: 0.403
glycan array binding signal (z-score) (Man(a1-2)Man(a1-3)Man): -0.344
glycan array binding signal (z-score) [9]: -1.38
glycan array binding signal (z-score) [10]: 0.075
glycan array binding signal (z-score) [11]: 0.06
glycan array binding signal (z-score) [12]: -0.87
glycan array binding signal (z-score) [13]: -0.411
glycan array binding signal (z-score) [14]: 0.26
glycan array binding signal (z-score) (Man(a1-3)[Man(a1-6)]Man): 0.572
glycan array binding signal (z-score) [15]: -0.152
glycan array binding signal (z-score) [16]: 0.135
glycan array binding signal (z-score) [17]: 0.109
glycan array binding signal (z-score) [18]: 0.012
glycan array binding signal (z-score) [19]: -0.081
glycan array binding signal (z-score) (Man(a1-6)Man): 0.132
glycan array binding signal (z-score) (Man(b1-4)GlcNAc): 0.243
glycan array binding signal (z-score) (MurNAc(b1-4)GlcNAc): -0.89
glycan array binding signal (z-score) (Neu5Ac(a2-3)Gal): 0.106
glycan array binding signal (z-score) [20]: -0.144
glycan array binding signal (z-score) [21]: 0.327
glycan array binding signal (z-score) [22]: 0.966
glycan array binding signal (z-score) [23]: -0.473
glycan array binding signal (z-score) [24]: -0.934
glycan array binding signal (z-score) [25]: -0.781
glycan array binding signal (z-score) [26]: -0.019
glycan array binding signal (z-score) [27]: 0.976
glycan array binding signal (z-score) [28]: -0.506
glycan array binding signal (z-score) [29]: 0.671
glycan array binding signal (z-score) [30]: -0.15
glycan array binding signal (z-score) [31]: -1.08
glycan array binding signal (z-score) [32]: 0.97
glycan array binding signal (z-score) [33]: 0.255
